## Library screen at single concentrations

Mtb cholesterol medium: 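Whole-cell growth test on Mycobacterium tuberculosis, read after 4 days in a medium based on cholesterol and the lipid DPPC; the read-out is not stated. Compounds at 50 µM. Direction is inferred from retests: higher values go with more growth inhibition. Of about 69,000 compounds tested this way, about 370 (0.54%) reached 50% or more in at least one test.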
Mtb glucose medium: 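Phenotypic screen: M. tuberculosis growth, glucose 7H9 medium, 3 days; the read-out is not stated. Tested at 50 µM. Higher reads as more growth inhibition (inferred: compounds with an IC50 in retests scored well above the rest). About 69,000 compounds were tested under these conditions; 1.1% (about 760) showed 50% or more at least once.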

Results are given as percent effect. The record does not define 0% and 100%; most values in the screen are far below 50% and negative numbers occur (in some assays of this library far below -100). The compounds are a random part of those screened. Two or more numbers in one place are separate tests of the same structure; such repeats can differ widely.

structure,Mtb cholesterol medium,Mtb glucose medium
[H][C@]12CC[C@]([H])(CN(C(=O)c3cnc(O)cn3)C1)N(Cc1ccccc1)C2,8.746%,-8.742%
CCOc1ccc(CN(CCC#N)CCN2CCOCC2)cc1OC,10.47%,23.51%
CCc1nc(CCNC(=O)C2CCOC2)sc1C (stereo not drawn),-4.477% & 3.399%,15.51%
NC(=O)C1CCN(C(=O)c2cc(S(=O)(=O)N3CCCC3)cs2)CC1,-10.06%,-11.11%
CC(C)NC(=O)N1CCN(C(=O)NC(C)C)CC2(CNC(=O)C2)C1,-19.99%,-3.6%
Cc1nn(C)c(N(C)C)c1CNCc1cccc(Cn2cccn2)c1,-14.45%,-7.08% & -33.62%
O=C(NCc1cccnc1-n1cncn1)c1cncc(Br)c1,-28.5%,-8.058%
CCOCC1CN(C(=O)Cc2ccccn2)Cc2c1cnn2C.O=C(O)C(F)(F)F.O=C(O)C(F)(F)F (stereo not drawn),-6.263% & -20.53%,-16.86%
Cc1cc2c(o1)CC(C)(C)CC2NC(=O)CNC(=O)C1CC1 (stereo not drawn),-6.348%,-10.79%
CC(C)OCCCN(Cc1ccncc1)Cc1cccc(F)c1F.Cl,-30.95%,2.522%
CN(C)c1ncc2c(n1)CCCC2NC(=O)c1ccsc1 (stereo not drawn),-21.05% & 4.503%,14%
NC(=O)C1CCCN(Cc2c(-c3ccco3)[nH]c3ncccc23)C1 (stereo not drawn),-27.8%,-3.749%
CN(CC(=O)NCC1CCCCC1)S(=O)(=O)c1cccnc1,-16.26%,-1.918%
COc1ccc(OC)c(NC(=O)c2c(C)cn(C)c2CC(=O)O)c1,-14.36%,-12.15%
Cn1c(CN2CCN(CC3CCCO3)CC2)nc2ccccc21 (stereo not drawn),-0.6138%,-35.76%
CS(=O)(=O)CCSCc1ccc(Br)c(F)c1,-5.216%,11.79%
CCC(CO)N(Cc1ccccn1)C(=O)c1ccc(C)c(Cl)c1 (stereo not drawn),-6.967% & 4.701%,1.821%
Cc1nn(C)c(C)c1C1CCCN1Cc1noc(C2CC2)n1 (stereo not drawn),-14.69%,-19.58%
CCC[C@H]1CN(c2nc(CO)cs2)C[C@@H]1NC(=O)C1CCC1,0.1156% & 13.16%,-5.116%
O=C(c1cnc(-c2ncccn2)s1)N1CCCC1Cn1cccn1 (stereo not drawn),11.45%,16.98%
COCc1c(C(=O)N2CCCC(N(C)Cc3ccccc3)C2)noc1C (stereo not drawn),3.065%,25.43%
CCc1nnc(CN(C)Cc2nc(-c3ccccc3Cl)oc2C)o1,-5.626%,34.41%
CC(O)C(=O)N1CCN(c2ccccc2Cl)C(=O)C1 (stereo not drawn),-30.01%,-43.92%
CC(C)(C)NS(=O)(=O)c1ccc(NC(=O)C2CC2)cc1,12.32%,18.66%
CC(C)(C)NCC(=O)N1CCCC(n2ccnc2)C1 (stereo not drawn),1.625%,-21.35%
COc1ccc(C2(C(=O)NC3CCc4nccn4C3)CCCC2)cc1 (stereo not drawn),-0.4804% & -5.952%,7.405%
CC(C(=O)N1CCN(C(=O)c2ccc(F)cc2)CC1)n1ccnc1 (stereo not drawn),-15.16%,-8.366%
O=C(Nc1ccc(CC(=O)N2CCSCC2)cc1)NC1CC1,-23.31%,-4.124%
Cc1cc(NC(=O)N(Cc2ccc(C#N)cc2)C(C)C)no1,-0.01859%,5.279%
[H][C@]12CCCCN1CCC[C@H]2CN(C)Cc1ccc(-n2cccn2)cc1,-10.78%,-36.42% & -2.525%
COCc1ccc(C(=O)N2CCC(c3cc4ncc(C)nc4[nH]3)C2)cc1 (stereo not drawn),-1.264%,-5.271%
CCc1c(C)nc2ccccc2c1N1CCC(NC(C)=O)CC1,-0.9745% & -2.243%,27.92%
[H][C@]12CC[C@]([H])(CN(Cc3ccccc3)C1)N(Cc1scnc1C)C2,-8.225%,-34.42%
CCOCCOC(C)C(=O)Nc1nccn1Cc1ccccc1 (stereo not drawn),12.28%,-1.913% & 3.37%
COc1ccc2nnc(C(=O)NCC3CCCC3)nc2c1,31.88%,50.58% & 35.08%
COc1ncc(CN2CCCC(c3[nH]ncc3S(C)(=O)=O)C2)cn1 (stereo not drawn),-9.506%,23%
CC(=O)N1Cc2nccn2CC(CNC(=O)c2cnccn2)C1 (stereo not drawn),-3.986%,-0.01597% & -4.292%
Cc1ncc(C(=O)NCCNC(=O)Cc2cccc(F)c2)s1,1.212%,-6.367% & -26.73%
FC(F)(F)c1ccc(CN2CCN(Cc3cscn3)CC2)cc1,15.37%,-17.87%
[H][C@]12CN(Cc3ccco3)C[C@@]1([H])OCCN(C(=O)c1cccn1C)C2,23.95%,27.87%
COc1ccc(CNC(=O)NCc2nc(C)c(C)s2)cn1,0.9321%,7.85%
Cc1ccccc1CC(=O)N1CCOCC1c1c(C)n[nH]c1C (stereo not drawn),-1.243%,3.087%
O=C(NCC1CCCO1)N1CCN(Cc2ccc3c(c2)CCO3)CC1 (stereo not drawn),8.219%,5.052%
CC(C)(C)c1n[nH]cc1CNCC1CCN(CC(F)(F)F)C1.Cl (stereo not drawn),10.52%,12.44% & -4.013%
Cc1cc(CNC2CCc3nc(C(C)C)nn3C2)on1 (stereo not drawn),3.173%,5.795%
CCN(CC)S(=O)(=O)c1cc2c3c(c1)c(C)cc(=O)n3CCC2,0.8167% & -0.4187%,-24.82%
O=C(O)C(F)(F)F.[H][C@@]12OCCN(Cc3ccc(F)c(F)c3)[C@@]1([H])CC[C@H]2OC,-5.589%,14.36%

The values are deposited in ChEMBL (CHEMBL3988442, “University of Dundee, Small-Polar-MMV Screening Library” (2021)).